# From the supplement of paper PMC6411743
# Sequences of proteins named here, by UniProt entry; tags and fusion partners are left off. A change or cut given only in a name is not applied to a line headed by its entry.
# UniProt Q8IYE0: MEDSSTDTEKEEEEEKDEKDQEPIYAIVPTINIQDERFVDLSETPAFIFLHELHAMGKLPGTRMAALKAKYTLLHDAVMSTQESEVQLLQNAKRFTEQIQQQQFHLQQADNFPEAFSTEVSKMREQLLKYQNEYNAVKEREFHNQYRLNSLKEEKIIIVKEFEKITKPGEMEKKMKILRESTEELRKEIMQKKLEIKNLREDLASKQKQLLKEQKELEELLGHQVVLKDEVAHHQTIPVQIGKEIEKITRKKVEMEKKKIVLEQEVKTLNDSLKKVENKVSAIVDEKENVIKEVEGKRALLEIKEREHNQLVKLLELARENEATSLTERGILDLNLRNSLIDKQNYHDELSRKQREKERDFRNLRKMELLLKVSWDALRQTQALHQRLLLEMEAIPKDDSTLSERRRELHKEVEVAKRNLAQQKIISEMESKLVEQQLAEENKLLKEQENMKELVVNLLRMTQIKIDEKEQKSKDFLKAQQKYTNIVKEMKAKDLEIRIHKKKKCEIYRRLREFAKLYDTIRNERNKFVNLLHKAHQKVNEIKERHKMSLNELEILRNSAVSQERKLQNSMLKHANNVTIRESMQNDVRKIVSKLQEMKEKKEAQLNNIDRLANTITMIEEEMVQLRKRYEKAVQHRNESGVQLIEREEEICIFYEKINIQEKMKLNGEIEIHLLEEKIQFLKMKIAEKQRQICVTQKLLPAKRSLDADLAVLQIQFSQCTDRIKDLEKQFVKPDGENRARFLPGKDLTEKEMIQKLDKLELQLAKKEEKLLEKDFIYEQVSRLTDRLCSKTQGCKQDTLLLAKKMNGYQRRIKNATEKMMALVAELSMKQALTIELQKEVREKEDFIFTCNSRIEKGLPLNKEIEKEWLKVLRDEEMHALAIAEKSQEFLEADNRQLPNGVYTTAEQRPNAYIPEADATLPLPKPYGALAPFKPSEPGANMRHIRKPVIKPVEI
# UniProt Q8TDN6: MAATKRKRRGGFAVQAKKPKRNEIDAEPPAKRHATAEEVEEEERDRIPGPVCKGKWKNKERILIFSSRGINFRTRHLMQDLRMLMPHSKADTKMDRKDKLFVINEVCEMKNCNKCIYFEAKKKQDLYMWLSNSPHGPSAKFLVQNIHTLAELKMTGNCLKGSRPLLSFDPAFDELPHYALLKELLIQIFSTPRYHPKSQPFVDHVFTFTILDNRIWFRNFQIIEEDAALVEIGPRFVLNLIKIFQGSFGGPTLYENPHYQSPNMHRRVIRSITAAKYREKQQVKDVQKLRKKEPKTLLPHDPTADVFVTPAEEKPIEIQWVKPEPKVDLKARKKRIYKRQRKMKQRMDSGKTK
# UniProt Q8NEZ2: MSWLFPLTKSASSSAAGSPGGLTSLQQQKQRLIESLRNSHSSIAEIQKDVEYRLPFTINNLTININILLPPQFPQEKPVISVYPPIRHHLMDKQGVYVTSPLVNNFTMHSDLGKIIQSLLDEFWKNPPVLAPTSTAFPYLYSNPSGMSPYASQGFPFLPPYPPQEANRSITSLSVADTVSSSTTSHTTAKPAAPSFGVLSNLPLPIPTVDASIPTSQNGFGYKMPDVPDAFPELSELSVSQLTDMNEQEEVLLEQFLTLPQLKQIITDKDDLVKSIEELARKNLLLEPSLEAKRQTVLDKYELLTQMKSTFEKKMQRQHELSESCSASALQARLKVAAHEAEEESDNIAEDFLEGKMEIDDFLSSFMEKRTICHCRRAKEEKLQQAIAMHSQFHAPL
# UniProt Q8N0X4: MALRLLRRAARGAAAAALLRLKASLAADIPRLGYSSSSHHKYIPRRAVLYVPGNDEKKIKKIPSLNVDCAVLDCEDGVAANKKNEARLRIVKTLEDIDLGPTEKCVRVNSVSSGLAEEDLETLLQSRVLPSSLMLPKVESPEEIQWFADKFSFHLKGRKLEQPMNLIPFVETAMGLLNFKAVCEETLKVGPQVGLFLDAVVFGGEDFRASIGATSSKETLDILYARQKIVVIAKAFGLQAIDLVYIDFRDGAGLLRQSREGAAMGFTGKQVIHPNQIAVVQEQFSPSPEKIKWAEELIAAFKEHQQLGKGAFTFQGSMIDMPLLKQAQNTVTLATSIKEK
# UniProt Q8TD30: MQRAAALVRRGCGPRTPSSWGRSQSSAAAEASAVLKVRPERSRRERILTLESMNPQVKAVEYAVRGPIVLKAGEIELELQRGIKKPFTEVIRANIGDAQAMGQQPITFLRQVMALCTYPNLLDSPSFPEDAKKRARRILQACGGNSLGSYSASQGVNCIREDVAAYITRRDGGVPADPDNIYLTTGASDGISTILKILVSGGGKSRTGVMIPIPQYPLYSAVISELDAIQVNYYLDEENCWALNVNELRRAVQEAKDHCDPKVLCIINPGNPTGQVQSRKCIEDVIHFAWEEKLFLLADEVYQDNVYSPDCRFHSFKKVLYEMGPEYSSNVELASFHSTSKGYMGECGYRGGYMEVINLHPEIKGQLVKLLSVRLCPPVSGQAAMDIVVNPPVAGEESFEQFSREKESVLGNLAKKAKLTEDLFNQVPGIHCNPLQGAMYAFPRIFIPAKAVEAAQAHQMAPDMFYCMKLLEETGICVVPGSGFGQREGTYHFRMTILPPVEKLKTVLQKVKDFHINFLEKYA
# UniProt Q8IYA6: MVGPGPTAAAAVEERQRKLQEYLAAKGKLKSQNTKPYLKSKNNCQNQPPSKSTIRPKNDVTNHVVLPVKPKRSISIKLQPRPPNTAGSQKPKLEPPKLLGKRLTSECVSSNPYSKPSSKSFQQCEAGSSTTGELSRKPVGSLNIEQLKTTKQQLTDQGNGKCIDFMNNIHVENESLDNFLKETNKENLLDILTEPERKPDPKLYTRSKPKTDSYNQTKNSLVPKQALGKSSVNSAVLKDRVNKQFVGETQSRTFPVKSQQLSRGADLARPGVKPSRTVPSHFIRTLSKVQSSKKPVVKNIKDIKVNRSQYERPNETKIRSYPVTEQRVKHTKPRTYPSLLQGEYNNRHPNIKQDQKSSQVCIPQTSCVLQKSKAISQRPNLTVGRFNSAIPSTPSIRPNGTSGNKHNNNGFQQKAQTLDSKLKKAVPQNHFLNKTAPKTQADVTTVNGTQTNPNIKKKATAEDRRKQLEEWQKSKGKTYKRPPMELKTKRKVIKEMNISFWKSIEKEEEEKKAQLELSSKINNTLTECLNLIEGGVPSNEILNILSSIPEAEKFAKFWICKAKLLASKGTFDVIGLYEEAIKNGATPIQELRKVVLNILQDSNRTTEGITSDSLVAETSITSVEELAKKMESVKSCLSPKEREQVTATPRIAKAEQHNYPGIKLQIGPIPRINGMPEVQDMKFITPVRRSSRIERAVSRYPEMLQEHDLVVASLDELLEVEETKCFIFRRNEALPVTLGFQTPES
# UniProt Q8NFD5, whole entry: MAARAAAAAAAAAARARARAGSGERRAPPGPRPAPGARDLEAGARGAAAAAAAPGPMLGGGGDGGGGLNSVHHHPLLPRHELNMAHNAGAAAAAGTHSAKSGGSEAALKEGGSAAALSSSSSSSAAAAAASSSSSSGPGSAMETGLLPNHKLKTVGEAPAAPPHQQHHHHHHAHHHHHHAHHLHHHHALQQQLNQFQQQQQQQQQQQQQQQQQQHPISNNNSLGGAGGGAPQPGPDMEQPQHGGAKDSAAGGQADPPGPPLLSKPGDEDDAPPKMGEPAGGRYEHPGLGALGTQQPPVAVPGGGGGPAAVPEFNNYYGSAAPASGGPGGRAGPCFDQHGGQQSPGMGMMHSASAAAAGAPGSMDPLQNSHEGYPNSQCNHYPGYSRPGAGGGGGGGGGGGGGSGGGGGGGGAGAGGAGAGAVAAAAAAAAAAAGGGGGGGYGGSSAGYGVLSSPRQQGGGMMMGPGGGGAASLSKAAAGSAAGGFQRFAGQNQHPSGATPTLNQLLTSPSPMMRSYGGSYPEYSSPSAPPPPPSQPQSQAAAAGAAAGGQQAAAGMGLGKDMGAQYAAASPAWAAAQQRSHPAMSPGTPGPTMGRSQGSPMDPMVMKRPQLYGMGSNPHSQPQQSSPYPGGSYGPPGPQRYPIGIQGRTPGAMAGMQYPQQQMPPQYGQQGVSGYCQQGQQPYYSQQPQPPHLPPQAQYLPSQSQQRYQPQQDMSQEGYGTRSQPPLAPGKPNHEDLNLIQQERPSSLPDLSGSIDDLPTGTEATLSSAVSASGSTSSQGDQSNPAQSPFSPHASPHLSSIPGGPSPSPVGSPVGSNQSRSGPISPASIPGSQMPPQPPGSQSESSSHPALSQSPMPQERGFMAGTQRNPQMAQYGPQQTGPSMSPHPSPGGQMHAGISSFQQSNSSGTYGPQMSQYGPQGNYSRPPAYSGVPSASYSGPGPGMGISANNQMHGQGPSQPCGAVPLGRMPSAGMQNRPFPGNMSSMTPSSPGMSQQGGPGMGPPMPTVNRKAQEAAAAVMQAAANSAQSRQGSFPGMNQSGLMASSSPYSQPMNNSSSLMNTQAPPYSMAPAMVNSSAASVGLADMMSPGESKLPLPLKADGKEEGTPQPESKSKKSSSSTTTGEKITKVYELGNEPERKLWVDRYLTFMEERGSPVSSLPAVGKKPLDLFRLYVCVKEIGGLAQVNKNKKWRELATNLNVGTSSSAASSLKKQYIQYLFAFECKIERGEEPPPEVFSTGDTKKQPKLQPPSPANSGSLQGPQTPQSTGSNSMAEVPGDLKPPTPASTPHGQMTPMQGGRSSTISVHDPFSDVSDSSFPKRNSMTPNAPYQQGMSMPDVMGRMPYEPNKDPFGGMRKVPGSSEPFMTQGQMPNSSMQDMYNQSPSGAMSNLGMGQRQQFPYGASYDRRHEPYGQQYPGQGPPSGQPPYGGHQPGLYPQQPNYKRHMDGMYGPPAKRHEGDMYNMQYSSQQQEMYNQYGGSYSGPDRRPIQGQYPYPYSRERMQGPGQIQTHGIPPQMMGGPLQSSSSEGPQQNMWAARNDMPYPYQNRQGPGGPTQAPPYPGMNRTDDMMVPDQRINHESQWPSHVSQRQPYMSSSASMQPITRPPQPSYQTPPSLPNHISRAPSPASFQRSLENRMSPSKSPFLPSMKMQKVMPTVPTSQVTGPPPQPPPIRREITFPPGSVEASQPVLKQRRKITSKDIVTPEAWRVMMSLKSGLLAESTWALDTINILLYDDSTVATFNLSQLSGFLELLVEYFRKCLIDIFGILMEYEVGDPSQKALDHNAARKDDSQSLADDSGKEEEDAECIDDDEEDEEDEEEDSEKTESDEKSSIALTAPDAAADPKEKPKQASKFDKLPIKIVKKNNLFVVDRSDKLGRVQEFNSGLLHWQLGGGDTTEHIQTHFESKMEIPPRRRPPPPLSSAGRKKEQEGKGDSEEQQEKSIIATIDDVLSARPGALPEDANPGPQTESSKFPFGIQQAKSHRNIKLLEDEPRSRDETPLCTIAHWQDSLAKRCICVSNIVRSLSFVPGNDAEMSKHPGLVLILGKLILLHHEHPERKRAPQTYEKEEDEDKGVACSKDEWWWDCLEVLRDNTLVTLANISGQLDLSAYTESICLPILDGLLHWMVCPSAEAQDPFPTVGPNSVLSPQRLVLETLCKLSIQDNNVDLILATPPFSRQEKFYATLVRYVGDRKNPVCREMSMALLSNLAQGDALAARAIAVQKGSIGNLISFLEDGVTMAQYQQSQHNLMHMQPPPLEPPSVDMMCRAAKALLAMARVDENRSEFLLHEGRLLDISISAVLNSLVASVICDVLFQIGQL
# UniProt Q8NE86: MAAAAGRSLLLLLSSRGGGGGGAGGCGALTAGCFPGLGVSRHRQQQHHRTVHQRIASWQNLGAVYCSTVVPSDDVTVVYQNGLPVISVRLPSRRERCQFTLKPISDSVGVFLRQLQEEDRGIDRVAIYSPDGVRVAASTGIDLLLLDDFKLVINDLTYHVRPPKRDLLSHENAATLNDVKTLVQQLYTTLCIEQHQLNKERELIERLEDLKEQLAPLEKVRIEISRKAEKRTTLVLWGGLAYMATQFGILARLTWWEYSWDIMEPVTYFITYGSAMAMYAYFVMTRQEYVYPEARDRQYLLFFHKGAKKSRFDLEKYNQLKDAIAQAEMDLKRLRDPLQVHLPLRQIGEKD
# UniProt Q8TBZ6: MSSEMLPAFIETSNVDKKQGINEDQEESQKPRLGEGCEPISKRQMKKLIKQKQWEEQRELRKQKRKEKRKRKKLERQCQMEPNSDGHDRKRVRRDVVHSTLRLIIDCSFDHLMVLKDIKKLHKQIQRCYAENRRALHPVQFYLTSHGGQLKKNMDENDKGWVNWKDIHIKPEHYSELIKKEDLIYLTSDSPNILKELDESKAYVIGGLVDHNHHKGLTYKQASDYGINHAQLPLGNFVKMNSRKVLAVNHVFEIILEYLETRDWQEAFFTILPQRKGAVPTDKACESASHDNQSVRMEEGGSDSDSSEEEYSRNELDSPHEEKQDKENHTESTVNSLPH
# UniProt Q8N8R7: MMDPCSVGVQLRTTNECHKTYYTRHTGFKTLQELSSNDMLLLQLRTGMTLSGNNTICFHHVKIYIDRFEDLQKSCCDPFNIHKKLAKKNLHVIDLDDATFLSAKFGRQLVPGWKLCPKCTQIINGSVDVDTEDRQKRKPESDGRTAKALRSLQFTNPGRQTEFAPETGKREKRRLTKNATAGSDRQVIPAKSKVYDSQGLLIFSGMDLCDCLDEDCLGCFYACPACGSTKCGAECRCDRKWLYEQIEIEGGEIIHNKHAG
# ± gives the standard deviation of the averaged measurements. The list shows a part of the results.
# Compound: Nc1nc2c(ncn2[C@@H]2O[C@H](COP(=O)(O)OP(=O)(O)OP(=O)(O)O)[C@@H](O)[C@H]2O)c(=O)[nH]1 [guanosine triphosphate]
# Assay: NP40-soluble protein abundance relative to vehicle (solubility fold change) (ratio); higher = more soluble protein in presence of GTP
# In short: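 In three independent experiments, Jurkat crude lysate made by Dounce homogenisation was treated for 10 min at room temperature and then 3 min at 37 °C with eight concentrations ranging from 0.1 to 10 mM. It was then solubilised with 0.8% NP40 plus benzonase for 60 min at 4 °C and ultracentrifuged. The supernatant was TMT-labelled for LC-MS/MS, and each value is the fold change against the detergent-processed vehicle for the same replicate, using vsn-normalised intensities.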
Target,NP40-soluble protein abundance (concentration: 0.1mM),NP40-soluble protein abundance (concentration: 0.5mM),NP40-soluble protein abundance (concentration: 1mM),NP40-soluble protein abundance (concentration: 2mM),NP40-soluble protein abundance (concentration: 4mM),NP40-soluble protein abundance (concentration: 6mM),NP40-soluble protein abundance (concentration: 8mM),NP40-soluble protein abundance (concentration: 10mM)
UniProt Q8IYE0 and related entries,0.918 ± 0.095,0.971 ± 0.051,0.985 ± 0.015,0.945 ± 0.15,0.878 ± 0.19,0.944 ± 0.21,0.93 ± 0.19,0.954 ± 0.14
UniProt Q8NCA5 and related entries,0.933 ± 0.056,0.95 ± 0.099,0.994 ± 0.04,1.1 ± 0.092,1.32 ± 0.11,1.39 ± 0.17,1.45 ± 0.23,1.73 ± 0.23
PCYOX1L (UniProt Q8NBM8),0.998 ± 0.043,1.03 ± 0.08,0.943 ± 0.091,0.939 ± 0.073,0.903 ± 0.089,0.919 ± 0.083,0.898 ± 0.036,0.888 ± 0.062
UniProt Q8IVS2,1.06 ± 0.064,1.05 ± 0.034,1.01 ± 0.025,1.03 ± 0.039,1.01 ± 0.086,1.03 ± 0.067,1.01 ± 0.068,1 ± 0.077
UniProt Q8TAF3 and related entries,1.03 ± 0.068,1.05 ± 0.06,0.949 ± 0.055,1.01 ± 0.064,0.997 ± 0.078,1 ± 0.019,0.948 ± 0.037,0.948 ± 0.076
UniProt Q8TDN6,1.08 ± 0.11,1.1 ± 0.15,1.1 ± 0.094,1.21 ± 0.074,1.27 ± 0.1,1.32 ± 0.14,1.33 ± 0.17,1.5 ± 0.14
UniProt Q8IZ21 and related entries,1.12 ± 0.16,1.05 ± 0.029,1.03 ± 0.13,1.08 ± 0.15,1.03 ± 0.14,1.04 ± 0.07,1.05 ± 0.088,1.11 ± 0.066
UniProt Q8IXU6 and related entries,1.08 ± 0.16,1.11 ± 0.16,0.996 ± 0.17,1.01 ± 0.11,1.06 ± 0.045,1.05 ± 0.064,0.961 ± 0.17,0.979 ± 0.12
NUP37 (UniProt Q8NFH4),1.04 ± 0.089,1.07 ± 0.17,0.955 ± 0.076,1.02 ± 0.19,1.02 ± 0.12,0.993 ± 0.12,0.914 ± 0.1,0.943 ± 0.13
RCOR2 (UniProt Q8IZ40),0.9379 ± 0.0074,0.959 ± 0.067,1.03 ± 0.04,1.01 ± 0.037,1.06 ± 0.02,1.04 ± 0.093,1.114 ± 0.01,1.106 ± 0.0057
UniProt Q8NEZ2 and related entries,0.941 ± 0.019,0.886 ± 0.071,0.985 ± 0.028,0.913 ± 0.13,1.07 ± 0.14,0.949 ± 0.088,1.04 ± 0.14,1.03 ± 0.064
UniProt Q8N2K0 and related entries,1.09 ± 0.011,1.04 ± 0.051,1.01 ± 0.017,1.017 ± 0.0025,1.03 ± 0.015,1.01 ± 0.023,0.997 ± 0.031,0.976 ± 0.034
SUPV3L1 (UniProt Q8IYB8),1.09 ± 0.021,1.09 ± 0.079,0.99 ± 0.027,0.98 ± 0.01,0.997 ± 0.033,0.973 ± 0.026,0.99 ± 0.029,0.92 ± 0.051
LRRC8A (UniProt Q8IWT6),1.08 ± 0.087,1.1 ± 0.084,1.08 ± 0.024,1.18 ± 0.024,1.15 ± 0.081,1.15 ± 0.068,1.27 ± 0.15,1.26 ± 0.097
UniProt Q8N0X4 and related entries,1.21 ± 0.1,1.075 ± 0.0048,1.17 ± 0.055,1.08 ± 0.049,1.08 ± 0.057,1.04 ± 0.08,1.06 ± 0.037,1.04 ± 0.052
GPT2 (UniProt Q8TD30),0.9993 ± 0.007,0.975 ± 0.034,0.958 ± 0.091,0.877 ± 0.076,0.895 ± 0.013,0.9177 ± 0.0053,0.866 ± 0.17,0.848 ± 0.032
UniProt Q8N0X7,0.993 ± 0.023,1.02 ± 0.046,0.987 ± 0.027,0.983 ± 0.053,0.931 ± 0.05,0.979 ± 0.051,0.971 ± 0.024,1.01 ± 0.032
CKAP2L (UniProt Q8IYA6),1.08 ± 0.13,1.06 ± 0.077,1.19 ± 0.13,1.19 ± 0.077,1.33 ± 0.24,1.32 ± 0.15,1.54 ± 0.16,1.72 ± 0.29
UniProt Q86XI2 and related entries,1.1 ± 0.16,1.16 ± 0.17,1.09 ± 0.15,1.16 ± 0.22,1.13 ± 0.22,1.13 ± 0.18,1.13 ± 0.12,1.1 ± 0.22
UniProt Q8NFD5 and related entries,1.01 ± 0.03,1.06 ± 0.072,1.07 ± 0.058,1.13 ± 0.1,1.12 ± 0.13,1.12 ± 0.14,1.15 ± 0.18,1.15 ± 0.15
UniProt Q8NE86 and related entries,1.13 ± 0.051,1.07 ± 0.079,0.978 ± 0.057,0.975 ± 0.1,1.02 ± 0.1,0.968 ± 0.051,0.915 ± 0.055,0.868 ± 0.031
UniProt Q8N5G2,1.07 ± 0.1,1.03 ± 0.089,1.12 ± 0.15,1.3 ± 0.057,1.26 ± 0.24,1.16 ± 0.17,1.24 ± 0.21,1.43 ± 0.25
UniProt Q8TBZ6,1.01 ± 0.062,0.969 ± 0.066,1.02 ± 0.05,0.975 ± 0.067,0.999 ± 0.092,1.01 ± 0.099,1.1 ± 0.027,1.05 ± 0.078
UniProt Q8TCC3 and related entries,1.04 ± 0.22,1.1 ± 0.26,1.52 ± 0.56,1.67 ± 0.58,1.71 ± 0.63,1.7 ± 0.61,1.66 ± 0.67,1.67 ± 0.71
ERI1 (UniProt Q8IV48),0.959 ± 0.1,0.989 ± 0.11,0.963 ± 0.068,1.03 ± 0.031,1.06 ± 0.054,1.12 ± 0.071,1.08 ± 0.093,1.16 ± 0.064
UniProt Q8N8R7,1.15 ± 0.13,1.1 ± 0.025,1.138 ± 0.011,1.02 ± 0.014,1.09 ± 0.026,1.07 ± 0.13,1.13 ± 0.038,1.1 ± 0.07
UniProt Q8N5N7 and related entries,1.16 ± 0.2,1.08 ± 0.17,1.41 ± 0.4,1.41 ± 0.36,1.43 ± 0.38,1.37 ± 0.35,1.29 ± 0.32,1.33 ± 0.41
SHCBP1 (UniProt Q8NEM2),1.02 ± 0.054,1.04 ± 0.051,1.02 ± 0.05,1 ± 0.075,1.03 ± 0.065,0.99 ± 0.071,0.976 ± 0.059,0.947 ± 0.046
UBR1 (UniProt Q8IWV7),1.007 ± 0.0044,0.971 ± 0.039,0.942 ± 0.045,0.922 ± 0.042,0.921 ± 0.11,1 ± 0.025,0.8726 ± 0.0079,0.877 ± 0.062
UniProt Q8NDI1-2|Q8NDI1-3|Q8NDI1,1.01 ± 0.048,0.967 ± 0.058,0.985 ± 0.074,0.91 ± 0.089,0.914 ± 0.095,0.9 ± 0.061,0.913 ± 0.066,0.892 ± 0.07

# Pulled one by one from above (two):
Target,NP40-soluble protein abundance (concentration: 0.1mM),NP40-soluble protein abundance (concentration: 0.5mM),NP40-soluble protein abundance (concentration: 1mM),NP40-soluble protein abundance (concentration: 2mM),NP40-soluble protein abundance (concentration: 4mM),NP40-soluble protein abundance (concentration: 6mM),NP40-soluble protein abundance (concentration: 8mM),NP40-soluble protein abundance (concentration: 10mM)
UniProt Q8IYE0 and related entries,0.918 ± 0.095,0.971 ± 0.051,0.985 ± 0.015,0.945 ± 0.15,0.878 ± 0.19,0.944 ± 0.21,0.93 ± 0.19,0.954 ± 0.14
CKAP2L (UniProt Q8IYA6),1.08 ± 0.13,1.06 ± 0.077,1.19 ± 0.13,1.19 ± 0.077,1.33 ± 0.24,1.32 ± 0.15,1.54 ± 0.16,1.72 ± 0.29
